Assay results taken from PubChem BioAssay AID1347423 (Functional Genomics Laboratory (NCATS/FGL), 2020).
Out of some 52,000 sequences screened, about 210 (0.4%) were called active.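 How the source made its calls: active means gene whose silencing raises cell survival under the drug, median off-target-corrected z-score across its silencing RNAs 2 or more; inactive means the rest.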 This is one part of the list.

Experiment: Resistance to Poly (ADP-Ribose) Polymerase inhibitor: Gene Identification via Genome-wide siRNA Screen
Conditions: mouse BRCA2 R2336H ES cells, olaparib, CellTiter-Glo viability; stronger effect = higher value
Outline: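 Mouse BRCA2 R2336H ES cells were reverse-transfected with siRNA (20 nM final), treated at 48 h with 500 nM olaparib, and read by CellTiter-Glo after 72 h. Scores: MAD-based z per siRNA, median per gene, seed off-target correction.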

| Sequence | z-score |
| --- | --- |
| GGUGCUAAUGACCUUUGAATT against Dbp | inactive: -2.21 |
| CCAUAAUUCCAGAACAUACTT against Hspg2 | inactive: -1.3 |
| GGCUAGAGAAAUAGUGUUGTT against D6Ertd253e | inactive: -0.28 |
| GGAACUAAAUAUCCCUAUGTT against 2010003I19Rik | inactive: 1.46 |
| GGAUGCUCUGGUUACAUUATT against Wdt2 | inactive: 0.52 |
| GGGUAUUUUGUACGAACACTT against 1600020H07Rik | inactive: -0.992 |
| GGAUUUUAAAGUCAUGUCATT against D130040H23Rik | inactive: -0.25 |
| GCCUAAGCUUGUAUGUUUGTT against Anapc2 | inactive: -0.298 |
| GCAAGCUACAUGCAUACAUTT against A630033E08Rik | inactive: 0.362 |
| GGAUGAAGAGGUUGGAGAUTT against Cct3 | inactive: -3.14 |
| GGCCCUCUCCAAGUCUAUATT against Pex7 | inactive: -1.91 |
| GGAGAAAUCGGAUGUGAAUTT against 1110030K22Rik | inactive: 0.12 |
| CGGCAAGAUGUCUACUAACTT against Wdtc1 | inactive: -0.584 |
| GGUCAUGUUUGGUUAGAAGTT against 1500034J20Rik | inactive: -1.07 |
| GGCAACUGCCUUUACCAUATT against 6330404A07Rik | inactive: 1.84 |
| GUCCCUCUGUUCGUCACGUTT against Olfr1449 | inactive: -0.23 |
| GGUUCUGAAUGGUUAUUUCTT against Itih5 | inactive: 1.26 |
| GGAUUGGUGAUCUAUGUGUTT against 6530401N04Rik | inactive: 0.072 |
| GCUGAGUAGACUUCGUCUGTT against Kifc2 | inactive: 0.502 |
| GCAGGAUUCAAAGAUCUAATT against Takrp | inactive: -1.08 |
| GGACUACAUGGAUGCCAUGTT against Prkrip1 | inactive: -1.3 |
| GGUGCAGAGAAGUGUAACATT against Slc25a21 | inactive: -0.0441 |

As entered above.
Value for GGCAACUGCCUUUACCAUATT against 6330404A07Rik under z-score: inactive: 1.84
Value for GGUCAUGUUUGGUUAGAAGTT against 1500034J20Rik under z-score: inactive: -1.07
Value for GCCUAAGCUUGUAUGUUUGTT against Anapc2 under z-score: inactive: -0.298
Value for GGGUAUUUUGUACGAACACTT against 1600020H07Rik under z-score: inactive: -0.992
Value for CGGCAAGAUGUCUACUAACTT against Wdtc1 under z-score: inactive: -0.584

The list continues.

| Sequence | z-score |
| --- | --- |
| CCUGUACAGUUGGAAACAUTT against Snrpd1 | inactive: -2.07 |
| GCUAUGACCGGAGGUUCUATT against 1700010A17Rik | inactive: -2.15 |
| GGCGAAAAAAGCUAAGCAGTT against Rg9mtd1 | inactive: -0.819 |
| GCUUCUGAUGGACAUUCACTT against Uhrf2 | inactive: -0.29 |
| UACUUAGGCCCUUGAGCAUTT against Timm13a | inactive: -2.17 |
| GGAAUAUGCCAAAAUGAAATT against Cdca1 | inactive: -2.15 |
| CCACUGCACCACAACUCAATT against Zfp36l2 | inactive: -0.0833 |
| CGCGAACUGCUCUAUAGAGTT against Hmgcl | inactive: -0.0351 |
| UAGUCACAAGGUUUGAAACTT against LOC382106 | inactive: 0.396 |
| GGUUCACGGGUUCUAAGAUTT against 1500010M16Rik | inactive: 1.8 |
| GGCACUGUGGUGUAAAUCCTT against Nnt | inactive: -1.1 |
| GGGACUUCAUGCUAAGUUUTT against Smarcd3 | inactive: -0.47 |
| CCACUCUGUUAUCACCGAGTT against Olfr774 | inactive: 0.182 |
| GGAUCUCUAACUUCACCAGTT against 2410042D21Rik | inactive: 1.52 |
| GCUUUGGAGAGUCAGUAAATT against A130070M06 | inactive: -0.748 |
| GGUAGGAGGUAUUUCCCACTT against Scotin | inactive: 0.655 |
| GGCUUAUAUUCAACCAUGGTT against Elavl4 | inactive: 0.77 |
| GGAGACCCUGGUGAGAAGATT against Emid1 | inactive: 0.87 |
| CCACAAUUUGAGAACAUUUTT against Tyrp1 | inactive: -1.58 |
| GGAGAUCAUGCUCAAGAACTT against Dgke | inactive: 0.968 |
| GCAAAGUUGGUGACGUGAUTT against Pole2 | inactive: 0.716 |
| GGAAAGCAAUGCAUUACAATT against Zfp482 | inactive: 1.28 |

| Sequence | z-score |
| --- | --- |
| GGAAUCUAGACUUAAUUCUTT against Trp53inp1 | inactive: 1 |
| CCCUCAGAUUCAAAAAGUGTT against Krt2-1 | inactive: 0.097 |
| GGGAGACCACAAUCAGCCATT against Kirrel1 | inactive: -0.212 |
| GGUCUUACGUUGGAUUUUUTT against Extl3 | inactive: 1.38 |
| GGAAUUUAUUCACCCAGACTT against Sirt2 | inactive: 0.416 |
| GUCUGAACCCAUCUUCUAUTT against Hcrt | inactive: 0.0318 |
| CCAAUGGAAAAAGUGCACATT against Olfr1061 | inactive: 0.727 |
| GCUCAUAGGUUUUGAGUAATT against Wt1 | inactive: -0.233 |
| GGACCAUUAAACUAAAUGGTT against Tpte | inactive: -0.534 |
| CGAUGACGAUGCCUAACCATT against A930013B10Rik | inactive: -1.35 |
| GGUGGAUACAGAAAGUCAUTT against F2 | inactive: 0.357 |
| CCUUAAUCCAAACAAGUCUTT against Ncl | inactive: -0.618 |
| CCCGGAAGACACUAAAACUTT against Gmeb1 | inactive: -1.3 |
| GGAAUAAGAAGCCACUCUATT against 2310044D20Rik | inactive: -0.17 |
| GAACUUGAUCCUCCCUGUCTT against Bglap-rs1 | inactive: 1.45 |
| CGACACCUAAGUUCAGCACTT against Smcr7 | inactive: 0.564 |
| GGUAGACAGAGAAGAUAAATT against Slc35f5 | inactive: 1.96 |
| CCUUCAGGGUGCUUCUCUATT against Mrgpra6 | inactive: -2.59 |
| GCUAUAACCUCACCGAGAATT against 1600002H07Rik | inactive: 1.54 |
| GCAUUGACAAGAUAUCUAATT against 2210412D01Rik | inactive: 0.303 |
| GGAAGAACGAAAAUAUCUGTT against 4921536I21Rik | inactive: -0.595 |
| GCUCCAUUUGAGGAACAAGTT against Zfp277 | inactive: -0.689 |
